Reference: PubChem BioAssay AID1259254 (NCATS, 2017)
Aim: 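Gene knock-downs that lead to re-replication, shown by excess G2 DNA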 (primary screen). System: human HCT116 colorectal cancer cells. Reagent: single siRNA against human genes. Timing: 3 days. Read-out: 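Nuclei stained with Hoechst and imaged; cell-cycle phase assigned by DNA content; G2 share scaled per plate, non-targeting siRNA 0%, GMNN siRNA 100%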. Direction: G2 robust z-score and G2 cells, % of GMNN control: higher = more G2 cells, more excess DNA replication; raw share of cells in G2: higher = larger share of cells with G2 DNA content. Active means: 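An siRNA counts as active if its G2 robust z-score lies at least 5 MADs above the screen median; here such calls match roughly 38% of GMNN control or more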.
Here is an unselected part of about 59,000 reagents tested. About 1,550 of them (2.6%) count as active. 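G2 share is only a proxy for re-replication; each gene was hit by three separate siRNAs, and active genes were retested.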 Raw values vary from plate to plate and are shown uncorrected. Reagents against one gene are numbered here. The record does not give: the amount of reagent.

| target | siRNA no. | G2 robust z-score | G2 cells, % of GMNN control | raw share of cells in G2 (%) | activity call |
| --- | --- | --- | --- | --- | --- |
| COX7C | 1 | -1.29 | -6.07 | 2.77 | inactive |
| COX7C | 2 | -0.776 | -2.5 | 4.07 | inactive |
| COX7C | 3 | -1.25 | -5.86 | 2.08 | inactive |
| RGL3 | 1 | -0.597 | -1.23 | 3.86 | inactive |
| RGL3 | 2 | 2.64 | 21.6 | 14.8 | inactive |
| RGL3 | 3 | -0.283 | 0.98 | 3.34 | inactive |
| EXOC6 | 1 | 1.99 | 16.9 | 9.67 | inactive |
| EXOC6 | 2 | -0.377 | 0.314 | 4.4 | inactive |
| EXOC6 | 3 | 0.306 | 5.12 | 4.88 | inactive |
| VAMP2 | 1 | 2.32 | 19.3 | 13.7 | inactive |
| VAMP2 | 2 | -0.81 | -2.73 | 2.81 | inactive |
| VAMP2 | 3 | 1.21 | 11.5 | 7.41 | inactive |
| ANKRD55 | 1 | -0.373 | 0.34 | 4.59 | inactive |
| ANKRD55 | 2 | -0.177 | 1.72 | 5.06 | inactive |
| ANKRD55 | 3 | -1.01 | -4.13 | 1.25 | inactive |
| TIMM22 | 1 | -0.623 | -1.42 | 3.31 | inactive |
| TIMM22 | 2 | 0.721 | 8.04 | 7.59 | inactive |
| TIMM22 | 3 | -0.738 | -2.22 | 2.55 | inactive |
| CYB5R4 | 1 | 0.415 | 5.89 | 8.63 | inactive |
| CYB5R4 | 2 | 0.568 | 6.97 | 6.82 | inactive |
| CYB5R4 | 3 | -1.38 | -6.72 | 1.23 | inactive |
| PDZRN4 | 1 | -0.594 | -1.21 | 3.39 | inactive |
| PDZRN4 | 2 | 3.36 | 26.6 | 14.6 | inactive |
| PDZRN4 | 3 | 3.17 | 25.3 | 11.2 | inactive |
| LINC00917 | 1 | -0.889 | -3.29 | 3.02 | inactive |
| LINC00917 | 2 | 2.1 | 17.7 | 9.41 | inactive |
| LINC00917 | 3 | 1.36 | 12.6 | 8.12 | inactive |
| GPNMB | 1 | -0.898 | -3.35 | 3.82 | inactive |
| GPNMB | 2 | -0.688 | -1.87 | 3.16 | inactive |
| GPNMB | 3 | -1.02 | -4.24 | 1.86 | inactive |
| ALG5 | 1 | -0.207 | 1.51 | 6.85 | inactive |
| ALG5 | 2 | 1.09 | 10.6 | 7.71 | inactive |
| ALG5 | 3 | 0.708 | 7.95 | 6.59 | inactive |
| CD55 | 1 | -0.682 | -1.83 | 4.44 | inactive |
| CD55 | 2 | -0.707 | -2.01 | 3.35 | inactive |
| CD55 | 3 | -0.135 | 2.02 | 4.31 | inactive |
| PNMA3 | 1 | 0.264 | 4.82 | 5.7 | inactive |
| PNMA3 | 2 | 1.3 | 12.1 | 9.13 | inactive |
| PNMA3 | 3 | -0.981 | -3.93 | 2.01 | inactive |

Continued, starting with the last 7 of the part before.
| target | siRNA no. | G2 robust z-score | G2 cells, % of GMNN control | raw share of cells in G2 (%) | activity call |
| --- | --- | --- | --- | --- | --- |
| ALG5 | 3 | 0.708 | 7.95 | 6.59 | inactive |
| CD55 | 1 | -0.682 | -1.83 | 4.44 | inactive |
| CD55 | 2 | -0.707 | -2.01 | 3.35 | inactive |
| CD55 | 3 | -0.135 | 2.02 | 4.31 | inactive |
| PNMA3 | 1 | 0.264 | 4.82 | 5.7 | inactive |
| PNMA3 | 2 | 1.3 | 12.1 | 9.13 | inactive |
| PNMA3 | 3 | -0.981 | -3.93 | 2.01 | inactive |
| COMMD1 | 1 | -0.00742 | 2.92 | 4.08 | inactive |
| COMMD1 | 2 | -0.215 | 1.45 | 4.31 | inactive |
| COMMD1 | 3 | 7.03 | 52.4 | 19.1 | active |
| RPF2 | 1 | 1.58 | 14.1 | 10 | inactive |
| RPF2 | 2 | 0.234 | 4.61 | 5.86 | inactive |
| RPF2 | 3 | 0.778 | 8.44 | 8.95 | inactive |
| CYP1A1 | 1 | -0.679 | -1.81 | 4.32 | inactive |
| CYP1A1 | 2 | -1.02 | -4.19 | 3.46 | inactive |
| CYP1A1 | 3 | -0.232 | 1.33 | 4.56 | inactive |
| WFDC10B | 1 | 0.136 | 3.92 | 4.46 | inactive |
| WFDC10B | 2 | 0.154 | 4.05 | 5.12 | inactive |
| WFDC10B | 3 | -0.492 | -0.492 | 2.85 | inactive |
| RIC8B | 1 | 0.467 | 6.25 | 6.93 | inactive |
| RIC8B | 2 | 0.00729 | 3.02 | 5.39 | inactive |
| RIC8B | 3 | -0.729 | -2.16 | 2.45 | inactive |
| JAKMIP2 | 1 | 1.39 | 12.7 | 11.1 | inactive |
| JAKMIP2 | 2 | -0.284 | 0.971 | 4.35 | inactive |
| JAKMIP2 | 3 | 3.5 | 27.6 | 13.5 | inactive |
| TRNAU1AP | 1 | -0.326 | 0.677 | 4.62 | inactive |
| TRNAU1AP | 2 | 0.027 | 3.16 | 5.57 | inactive |
| TRNAU1AP | 3 | -1.46 | -7.27 | 3.24 | inactive |
| BMS1P9 | 1 | -0.468 | -0.328 | 3.05 | inactive |
| BMS1P9 | 2 | 6.11 | 45.9 | 16.4 | active |
| BMS1P9 | 3 | 1.85 | 16 | 10.3 | inactive |
| CDHR2 | 1 | -1.26 | -5.91 | 3.27 | inactive |
| CDHR2 | 2 | 6.9 | 51.5 | 23.3 | active |
| CDHR2 | 3 | 0.629 | 7.39 | 6.63 | inactive |
| CDK13 | 1 | 4.95 | 37.8 | 17.4 | inactive |
| CDK13 | 2 | -0.55 | -0.901 | 4.86 | inactive |
| CDK13 | 3 | 3.15 | 25.1 | 11.7 | inactive |
